Results are given in words; binding and its absence hold for the method and conditions named. Some entries that bind do so weakly or less than the wild type. For some of these results: Where a sequence is shown, tags or fusion partners need not be part of it.
T1: mouse ZnT8 (endogenous, in mouse pancreatic islets and β-cells) (mouse) (UniProt Q8BGG0)
T1 sequence (looked up): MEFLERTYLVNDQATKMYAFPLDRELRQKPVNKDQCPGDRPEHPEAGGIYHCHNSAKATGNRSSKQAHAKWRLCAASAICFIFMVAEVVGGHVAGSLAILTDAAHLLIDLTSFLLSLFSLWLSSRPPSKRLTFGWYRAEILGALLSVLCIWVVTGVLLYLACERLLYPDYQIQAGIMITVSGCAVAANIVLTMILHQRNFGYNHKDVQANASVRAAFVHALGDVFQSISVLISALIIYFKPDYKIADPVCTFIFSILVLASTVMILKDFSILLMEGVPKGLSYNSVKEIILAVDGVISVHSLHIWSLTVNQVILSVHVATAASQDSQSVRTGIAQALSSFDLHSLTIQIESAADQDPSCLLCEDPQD

T2: human ZnT8-His (full-length ZnT8, isoform-2, C-terminal His-tag) (human) (UniProt Q8IWU4)
T2 sequence (looked up): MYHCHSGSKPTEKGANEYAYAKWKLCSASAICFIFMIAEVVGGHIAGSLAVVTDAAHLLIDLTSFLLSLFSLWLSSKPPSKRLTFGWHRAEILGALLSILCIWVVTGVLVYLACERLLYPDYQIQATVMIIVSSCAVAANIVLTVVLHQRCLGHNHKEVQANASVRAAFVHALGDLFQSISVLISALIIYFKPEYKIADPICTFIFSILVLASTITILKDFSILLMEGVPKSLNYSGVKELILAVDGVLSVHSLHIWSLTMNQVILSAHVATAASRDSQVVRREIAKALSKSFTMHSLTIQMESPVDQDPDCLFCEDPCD

T3: human ZnT8 (endogenous, in EndoC-βH1 cells and human pancreatic islets) (human) (UniProt Q8IWU4)
T3 sequence: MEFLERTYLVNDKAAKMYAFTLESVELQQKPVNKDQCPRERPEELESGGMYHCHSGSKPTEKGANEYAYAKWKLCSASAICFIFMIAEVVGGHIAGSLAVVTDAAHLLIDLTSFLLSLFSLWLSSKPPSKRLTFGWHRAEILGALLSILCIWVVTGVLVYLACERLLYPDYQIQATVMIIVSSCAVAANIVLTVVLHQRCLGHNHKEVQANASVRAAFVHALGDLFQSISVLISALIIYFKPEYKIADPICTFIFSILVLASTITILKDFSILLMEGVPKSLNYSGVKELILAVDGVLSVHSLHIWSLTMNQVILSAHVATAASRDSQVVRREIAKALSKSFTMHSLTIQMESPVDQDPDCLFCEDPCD


What was measured:
[1] = target: T1, mouse ZnT8 (endogenous, in mouse pancreatic islets and β-cells) (mouse); assay: flow cytometry and sorting of live dispersed mouse pancreatic cells, chimeric mAb43 with PE anti-human IgG
[2] = target: T1, mouse ZnT8 (endogenous, in mouse pancreatic islets and β-cells) (mouse); assay: immunohistochemistry of paraffin-embedded mouse pancreas sections (chimeric mAb43 by paragraph 174)
[3] = target: T2, human ZnT8-His (full-length ZnT8, isoform-2, C-terminal His-tag) (human); assay: ELISA, mAb titration on ZnT8 proteoliposomes passively immobilized on a plate
[4] = target: T3, human ZnT8 (endogenous, in EndoC-βH1 cells and human pancreatic islets) (human); assay: immunoblot of SDS-denatured total lysate of EndoC-βH1 cells
[5] = target: T3, human ZnT8 (endogenous, in EndoC-βH1 cells and human pancreatic islets) (human); assay: immunofluorescence of fixed and permeabilized EndoC-βH1 cells
[6] = target: T2, human ZnT8-His (full-length ZnT8, isoform-2, C-terminal His-tag) (human); assay: ELISA titrations, detergent-solubilized ZnT8 and ZnT8 proteoliposomes
[7] = target: T2, human ZnT8-His (full-length ZnT8, isoform-2, C-terminal His-tag) (human); assay: ELISA, mAb titration on detergent-solubilized flZnT8 (ZnT8-His) captured on a plate

binding [1] | binding [2] | binding [3] | binding [4] | binding [5] | binding [6] | binding [7] | Binder
binds | binds |  |  |  |  |  | chimeric mAb43 (mouse-Fab/human-Fc) (antibody, V domains shown) VH: EVQLQQSGPELVKPGASVKIACKASGYTFTGYYMKWVKQSLGKSLEWIGDINPNNGGTNYNQHFKGKATLTVDESSSTAYMELRSLTSEDSAVYYCARGVDWIFAFWGQGTLVTVSP VL: SIVMTQTPKFLPVSAGDRVTMTCKASQSVGNKVAWYQQKPGQSPKLLIYYATNRYTGVPDRFTGSGSGTDFTFTISSVQVEDLAVYFCQQHYSSPWTFGGGTKLEIK
 |  | binds | binds | binds | binds | binds | mAb20 (antibody, mouse IgG1, kappa, V domains shown, Validated anti-CTD control antibody; also called anti-CTD mAb20; mAb20-A647 (mAb20 labeled with a fluorescent A647 secondary antibody)) VH: QIQLVQSGPELKKPGETVKISCKASGYIFTNYPMHWVKQAPGKGLKWMGWINTYSGVPTHADDFKGRFAFSLETSANSAFLQINNLKNEDTATYFCTRSRITPTGGYAMDYWGQGTSVTVSS VL: DVVMTQTPLSLPVSLGDQASISCRSSQSLVHSNGNTYLHWYLQKPGQSPNLLISKVSNRFSGVPERFSGSGSGTDFTLKISRVEAEDLGVYFCSQNTHVPWTFGGGTKLEIKR
